Article PMC10384010, “Chromatographic Data in Statistical Analysis of BBB Permeability Indices” (Membranes, 2023)

Key:
[1] = HPLC on IAM (immobilized artificial membrane) column, retention factor; assay type: physicochemical; settings: IAM.PC.DD.2 column
[2] = Normal-phase TLC on silica gel 60 F254 (Rf); assay type: physicochemical; settings: water:methanol:acetonitrile 60:20:20, ammonium acetate pH 7.4
[3] = Reversed-phase TLC on RP-2 silanized plates (Rf); assay type: physicochemical; settings: silica gel 60 RP-2 F254 silanized; water:methanol:acetonitrile 60:20:20, ammonium acetate pH 7.4
[4] = plasma; cited from earlier work

Row | Compound | k(IAM) retention factor ([1]; 10 mM phosphate buffer pH 7.4:acetonitrile 80:20) | logkIAM ([1]; logarithm of retention factor, phosphate buffer pH 7.4:acetonitrile 80:20) | NP (Rf from NP TLC plate) [2] | RP (Rf from RP-2 TLC plate) [3] | PB (protein binding) [4]
1 | CCC[C@@H]1C[C@@H](C(=O)N[C@@H]([C@H]2O[C@H](SC)[C@H](O)[C@@H](O)[C@H]2O)[C@H](C)Cl)N(C)C1 [clindamycin] | 11.34 | 1.05 | 0.69 | 0.25 | 0.93
2 | CCn1cc(C(=O)O)c(=O)c2cc(F)c(N3CCN(C)CC3)cc21 [pefloxacin] | – | – | – | 0.76 | –
